Measured values reported in patent publication US8703114B2 (priority 2008, dated 2014).

Assays:
[1] = Fmoc solid-phase peptide synthesis; 2-chlorotrityl chloride; settings: whole synthesis, HPLC
[2] = general procedure: Fmoc solid-phase peptide synthesis; 2-chlorotrityl chloride; settings: whole synthesis

In the case of MA-Gly-Gly-Pro-Nle, the “purity (crude or final not stated)” value [1] is reported as 95%.
With MA-Gly-Gly-Pro-Nle-NH(CH2)2NH2 the “crude HPLC purity” value [2] was 89%.
